Measurements as given in paper PMC10113190.
No constants are given. Whether binding was seen depends on the method and setting. In cells and extracts the contact can be indirect. Here binding means that the protein was enriched with, or labelled near, the bait; the list need not be complete.

Chains of the proteins cited; added tags and fusions are not shown. Residues count along the entry.
UniProt Q8IFM5, residues 25-526: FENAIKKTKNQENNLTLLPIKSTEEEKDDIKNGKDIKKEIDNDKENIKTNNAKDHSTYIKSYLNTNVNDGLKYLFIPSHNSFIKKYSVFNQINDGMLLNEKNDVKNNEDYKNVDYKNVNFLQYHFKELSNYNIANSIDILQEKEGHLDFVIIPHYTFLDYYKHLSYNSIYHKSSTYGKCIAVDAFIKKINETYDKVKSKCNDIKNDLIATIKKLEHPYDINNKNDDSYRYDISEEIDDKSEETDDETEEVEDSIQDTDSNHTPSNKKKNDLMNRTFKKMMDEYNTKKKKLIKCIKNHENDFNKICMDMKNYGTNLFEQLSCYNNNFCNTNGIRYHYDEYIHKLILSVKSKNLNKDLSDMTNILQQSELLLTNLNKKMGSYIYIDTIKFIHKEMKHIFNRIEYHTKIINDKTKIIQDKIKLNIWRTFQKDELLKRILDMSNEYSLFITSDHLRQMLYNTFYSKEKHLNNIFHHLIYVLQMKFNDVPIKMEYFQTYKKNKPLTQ
UniProt Q8ILP3, residues 23-945: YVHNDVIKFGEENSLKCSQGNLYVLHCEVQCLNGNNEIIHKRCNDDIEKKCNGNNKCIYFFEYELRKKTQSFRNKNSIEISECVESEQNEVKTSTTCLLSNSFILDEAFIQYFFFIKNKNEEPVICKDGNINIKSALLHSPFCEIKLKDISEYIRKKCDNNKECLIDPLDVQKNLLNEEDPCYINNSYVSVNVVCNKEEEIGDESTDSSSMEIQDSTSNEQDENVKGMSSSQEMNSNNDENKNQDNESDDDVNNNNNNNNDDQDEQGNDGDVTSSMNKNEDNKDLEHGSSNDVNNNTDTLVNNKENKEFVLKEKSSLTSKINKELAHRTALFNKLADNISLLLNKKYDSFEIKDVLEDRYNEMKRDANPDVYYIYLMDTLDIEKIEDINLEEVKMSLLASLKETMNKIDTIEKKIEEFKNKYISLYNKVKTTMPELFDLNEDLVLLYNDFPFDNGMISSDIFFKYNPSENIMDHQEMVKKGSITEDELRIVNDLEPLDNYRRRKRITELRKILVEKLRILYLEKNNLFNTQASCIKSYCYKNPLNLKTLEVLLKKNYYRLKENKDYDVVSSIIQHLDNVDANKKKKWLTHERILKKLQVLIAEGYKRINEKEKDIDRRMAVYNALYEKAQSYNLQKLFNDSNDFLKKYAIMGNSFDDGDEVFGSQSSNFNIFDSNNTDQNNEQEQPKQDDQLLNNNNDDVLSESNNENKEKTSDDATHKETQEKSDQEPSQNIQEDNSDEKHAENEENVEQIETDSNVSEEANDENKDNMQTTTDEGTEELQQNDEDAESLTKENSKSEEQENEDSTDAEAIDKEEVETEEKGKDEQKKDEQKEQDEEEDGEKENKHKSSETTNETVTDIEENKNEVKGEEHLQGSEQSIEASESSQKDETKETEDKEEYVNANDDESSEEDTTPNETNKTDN
UniProt O97302, residues 20-1086: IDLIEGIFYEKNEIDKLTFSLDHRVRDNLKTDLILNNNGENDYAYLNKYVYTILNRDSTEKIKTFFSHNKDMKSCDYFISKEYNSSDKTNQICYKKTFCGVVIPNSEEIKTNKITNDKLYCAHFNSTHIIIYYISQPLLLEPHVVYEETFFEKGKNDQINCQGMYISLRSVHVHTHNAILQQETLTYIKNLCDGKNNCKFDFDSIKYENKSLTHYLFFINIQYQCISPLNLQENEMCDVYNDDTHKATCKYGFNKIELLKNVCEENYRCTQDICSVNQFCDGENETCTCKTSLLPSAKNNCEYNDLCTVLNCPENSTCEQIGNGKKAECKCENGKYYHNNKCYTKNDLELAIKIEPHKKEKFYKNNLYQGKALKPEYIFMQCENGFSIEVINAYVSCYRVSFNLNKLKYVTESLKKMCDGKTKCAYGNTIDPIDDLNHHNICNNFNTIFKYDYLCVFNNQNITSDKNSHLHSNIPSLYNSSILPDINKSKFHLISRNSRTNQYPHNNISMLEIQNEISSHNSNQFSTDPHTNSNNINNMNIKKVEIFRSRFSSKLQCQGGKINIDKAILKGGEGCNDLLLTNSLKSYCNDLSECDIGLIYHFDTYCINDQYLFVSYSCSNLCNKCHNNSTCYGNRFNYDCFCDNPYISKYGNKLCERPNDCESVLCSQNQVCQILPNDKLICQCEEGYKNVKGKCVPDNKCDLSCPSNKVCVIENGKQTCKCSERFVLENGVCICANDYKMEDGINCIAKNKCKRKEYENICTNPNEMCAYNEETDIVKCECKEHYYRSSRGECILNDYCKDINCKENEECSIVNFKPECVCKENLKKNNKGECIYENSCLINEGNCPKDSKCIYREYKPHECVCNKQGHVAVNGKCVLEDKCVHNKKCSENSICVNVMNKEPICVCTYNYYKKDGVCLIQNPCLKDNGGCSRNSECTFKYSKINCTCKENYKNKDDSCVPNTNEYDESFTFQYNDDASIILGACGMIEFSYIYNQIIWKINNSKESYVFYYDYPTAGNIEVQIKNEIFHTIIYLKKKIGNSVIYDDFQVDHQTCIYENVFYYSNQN

Target: PfRh5 with an N-terminally HA-tagged prodomain (Rh5PD-NHA), kept unprocessed with WM382 (P. falciparum) (UniProt Q8IFM5)
Assay: affinity purification with mass spectrometry

Row | Substance | binding
1 | P113 (PF3D7_1420700), endogenous (from UniProt Q8ILP3 23-945) | binds
2 | PfRipr (PF3D7_0323400), endogenous (from UniProt O97302 20-1086) | binds
